Measured values from article PMC8355244, “A fragment-based approach identifies an allosteric pocket that impacts malate dehydrogenase activity” (Communications Biology, 2021).
Several values for one entry are separate records, joined by “and”; a condition that tells them apart may be missing. Identical values can stand only once. The source gives many values for each of these; only a part stands here.

Protein sequences, listed by entry. Tags and fused reporters are not part of them.
UniProt Q6VVP7, entry or part of it: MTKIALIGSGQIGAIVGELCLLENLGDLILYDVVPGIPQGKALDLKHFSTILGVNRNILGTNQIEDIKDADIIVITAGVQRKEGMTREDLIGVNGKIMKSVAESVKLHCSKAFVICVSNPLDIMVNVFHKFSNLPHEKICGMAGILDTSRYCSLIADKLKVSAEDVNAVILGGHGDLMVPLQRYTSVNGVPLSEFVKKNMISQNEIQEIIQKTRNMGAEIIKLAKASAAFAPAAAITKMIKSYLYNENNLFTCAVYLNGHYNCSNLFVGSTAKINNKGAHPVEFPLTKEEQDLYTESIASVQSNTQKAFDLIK

Biological target: T1, PfMDH (Plasmodium falciparum, UniProt Q6VVP7)
T1 construct: The full-length WT PfMDH gene was cloned into pETM-13; made in house; host or cells: E. coli Rosetta 2 (DE3) pLysS
Test: Thermal shift assay (TSA)
Format: binding
Details: for TSA melting curve raw signal: triplicate columns; for TSA melting curve raw fluorescence signal: three replicate columns
Procedure, shortened: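 10 μM PfMDH with 1 mM compound in 100 mM Na–phosphate pH 7.4, 400 mM NaCl, 10× Sypro Orange; 1% DMSO controls. Melting inflection points taken as Tm; shifts >1 °C read as stabilization, negative shifts as destabilization.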

For `CC(C)c1ccc(-c2csc(N)n2)cc1` [4PA-iPr], the “TSA melting curve raw signal” value (Temperature 25.5) was 8953.812 and 9615.673 and 6410.499, the “TSA melting curve raw signal” value (Temperature 26) was 8913.071 and 9583.729 and 6382.814 and the “TSA melting curve raw signal” value (Temperature 26.5) was 8872.33 and 9551.785 and 6355.128. For the same molecule, the “TSA melting curve raw signal” value (Temperature 27) was 8831.589 and 9519.841 and 6327.443, the “TSA melting curve raw signal” value (Temperature 27.5) was 8790.847 and 9487.897 and 6299.757 and the “TSA melting curve raw signal” value (Temperature 28) was 8750.106 and 9455.953 and 6272.072. The “TSA melting curve raw signal” value (Temperature 44.5) was 7813.142 and 5547.261, the “TSA melting curve raw signal” value (Temperature 45) was 7295.721 and 7766.885 and 5548.777 and the “TSA melting curve raw signal” value (Temperature 45.5) was 7254.178 and 7721.364 and 5552.364. For the same molecule, the “TSA melting curve raw signal” value (Temperature 46) was 7213.441 and 7676.718 and 5557.839, the “TSA melting curve raw signal” value (Temperature 46.5) was 7173.35 and 7633.145 and 5565.544 and the “TSA melting curve raw signal” value (Temperature 47) was 7134.4 and 7590.836 and 5575.27. The “TSA melting curve raw signal” value (Temperature 47.5) was 7096.606 and 7549.647 and 5587.314, the “TSA melting curve raw signal” value (Temperature 48) was 7060.883 and 7509.799 and 5602.396 and the “TSA melting curve raw signal” value (Temperature 48.5) was 7027.134 and 7471.571 and 5620.657. The “TSA melting curve raw signal” value (Temperature 49) was 6995.64 and 7436.006 and 5642.418, the “TSA melting curve raw signal” value (Temperature 49.5) was 6966.531 and 7403.371 and 5667.989 and the “TSA melting curve raw signal” value (Temperature 50) was 6939.992 and 7373.974 and 5697.365. The “TSA melting curve raw signal” value (Temperature 50.5) was 6915.74 and 7348.252 and 5730.298, the “TSA melting curve raw signal” value (Temperature 51) was 6894.711 and 7327.048 and 5767.652 and the “TSA melting curve raw signal” value (Temperature 51.5) was 6877.353 and 7310.078 and 5809.779. The “TSA melting curve raw signal” value (Temperature 52) was 6863.434 and 7298.022 and 5857.055, the “TSA melting curve raw signal” value (Temperature 52.5) was 6853.613 and 7291.416 and 5910.05 and the “TSA melting curve raw signal” value (Temperature 53) was 6848.363 and 7290.403 and 5969.014. The “TSA melting curve raw signal” value (Temperature 53.5) was 6846.76 and 7294.591 and 6033.413, the “TSA melting curve raw signal” value (Temperature 54) was 6848.405 and 7304.165 and 6102.999 and the “TSA melting curve raw signal” value (Temperature 54.5) was 6853.206 and 7318.041 and 6177.192. For the same molecule, the “TSA melting curve raw signal” value (Temperature 55) was 6859.987 and 7335.374 and 6254.865, the “TSA melting curve raw signal” value (Temperature 55.5) was 6867.57 and 7355.488 and 6334.894 and the “TSA melting curve raw signal” value (Temperature 56) was 6875.739 and 7377.33 and 6416.393. For the same molecule, the “TSA melting curve raw signal” value (Temperature 56.5) was 6883.298 and 7399.335 and 6496.832, the “TSA melting curve raw signal” value (Temperature 57) was 6889.403 and 7420.875 and 6574.472 and the “TSA melting curve raw signal” value (Temperature 57.5) was 6893.178 and 7440.745 and 6647.471. For the same molecule, the “TSA melting curve raw signal” value (Temperature 58) was 6893.545 and 7457.145 and 6713.44, the “TSA melting curve raw signal” value (Temperature 58.5) was 6889.516 and 7468.876 and 6770.17 and the “TSA melting curve raw signal” value (Temperature 59) was 6880.874 and 7475.253 and 6816.856. The “TSA melting curve raw signal” value (Temperature 59.5) was 6866.783 and 7475.114 and 6852.332, the “TSA melting curve raw signal” value (Temperature 60) was 6847.162 and 7468.071 and 6875.746 and the “TSA melting curve raw signal” value (Temperature 60.5) was 6822.416 and 7454.024 and 6887.316. For the same molecule, the “TSA melting curve raw signal” value (Temperature 61) was 6792.202 and 7433.018 and 6887.429, the “TSA melting curve raw signal” value (Temperature 61.5) was 6756.922 and 7405.268 and 6876.736 and the “TSA melting curve raw signal” value (Temperature 62) was 6717.488 and 7371.773 and 6856.679. For the same molecule, the “TSA melting curve raw signal” value (Temperature 62.5) was 6674.467 and 7333.182 and 6828.949, the “TSA melting curve raw signal” value (Temperature 63) was 6628.562 and 7290.503 and 6795.364 and the “TSA melting curve raw signal” value (Temperature 63.5) was 6580.985 and 7245.03 and 6757.268. For the same molecule, the “TSA melting curve raw signal” value (Temperature 64) was 6532.41 and 7197.285 and 6716.291, the “TSA melting curve raw signal” value (Temperature 64.5) was 6482.924 and 7147.845 and 6672.961 and the “TSA melting curve raw signal” value (Temperature 65) was 6432.938 and 7097.141 and 6628.112. For the same molecule, the “TSA melting curve raw fluorescence signal” value (Temperature 65.5) was 6382.678 and 7045.752 and 6582.028, the “TSA melting curve raw fluorescence signal” value (Temperature 66) was 6332.399 and 6993.517 and 6535.021 and the “TSA melting curve raw fluorescence signal” value (Temperature 66.5) was 6281.848 and 6941.307 and 6487.281. For the same molecule, the “TSA melting curve raw fluorescence signal” value (Temperature 67) was 6231.507 and 6889.03 and 6439.431, the “TSA melting curve raw fluorescence signal” value (Temperature 67.5) was 6181.829 and 6836.712 and 6391.405 and the “TSA melting curve raw fluorescence signal” value (Temperature 68) was 6132.792 and 6784.379 and 6343.501. The “TSA melting curve raw fluorescence signal” value (Temperature 68.5) was 6084.495 and 6732.153 and 6296.56, the “TSA melting curve raw fluorescence signal” value (Temperature 69) was 6036.993 and 6679.716 and 6250.4 and the “TSA melting curve raw fluorescence signal” value (Temperature 69.5) was 5990.041 and 6626.622 and 6204.816. The “TSA melting curve raw fluorescence signal” value (Temperature 70) was 5942.967 and 6573.345 and 6160.011, the “TSA melting curve raw fluorescence signal” value (Temperature 70.5) was 5895.779 and 6519.831 and 6116.266 and the “TSA melting curve raw fluorescence signal” value (Temperature 71) was 5848.265 and 6466.13 and 6073.467. For the same molecule, the “TSA melting curve raw fluorescence signal” value (Temperature 71.5) was 5800.483 and 6412.157 and 6032.092, the “TSA melting curve raw fluorescence signal” value (Temperature 72) was 5752.971 and 6358.991 and 5992.542 and the “TSA melting curve raw fluorescence signal” value (Temperature 72.5) was 5705.872 and 6306.415 and 5955.226. For the same molecule, the “TSA melting curve raw fluorescence signal” value (Temperature 73) was 5659.486 and 6254.351 and 5919.738, the “TSA melting curve raw fluorescence signal” value (Temperature 90) was 5193.688 and 4738.287 and the “TSA melting curve raw fluorescence signal” value (Temperature 90.5) was 4670.141 and 5159.996 and 4698.069. For the same molecule, the “TSA melting curve raw fluorescence signal” value (Temperature 91) was 4642.19 and 5126.709 and 4658.778, the “TSA melting curve raw fluorescence signal” value (Temperature 91.5) was 4614.16 and 5094.123 and 4620.311 and the “TSA melting curve raw fluorescence signal” value (Temperature 92) was 4586.176 and 5061.91 and 4582.446. For the same molecule, the “TSA melting curve raw fluorescence signal” value (Temperature 92.5) was 4557.856 and 5030.347 and 4545.343, the “TSA melting curve raw fluorescence signal” value (Temperature 93) was 4529.4 and 4999.124 and 4508.199 and the “TSA melting curve raw fluorescence signal” value (Temperature 93.5) was 4500.492 and 4967.515 and 4470.766. The “TSA melting curve raw fluorescence signal” value (Temperature 94) was 4471.078 and 4935.782 and 4433.574, the “TSA melting curve raw fluorescence signal” value (Temperature 94.5) was 4441.637 and 4904.019 and 4396.291 and the “TSA melting curve raw fluorescence signal” value (Temperature 95) was 4411.095 and 4872.082 and 4359.492.
